From patent US20200268702A1, “METHODS OF TREATING […]” (Amarin Pharmaceuticals Ireland Limited, priority 2013, published 2020)
At least one structure is not confirmed: it was looked up by name or label, or the drawing left a doubt.

Experiments:
Type in all cases: in vivo, human
[1] = system: patients with fasting triglyceride levels >500 mg/dL; assay: MARINE study: 12-week placebo-controlled study of AMR101, metabolic syndrome subset; settings: 4 g/day; 12 weeks; subjects with metabolic syndrome; Total
Method: A multi-center, placebo-controlled randomized, double-blind, 12-week study with an open-label extension was performed to evaluate the efficacy and safety of AMR101 in patients with fasting triglyceride levels >500 mg/dL. The primary objective of the study was to determine the efficacy of AMR101 2 g daily and 4 g daily, compared to placebo, in lowering fasting TG levels in patients with fasting TG levels 500 mg/dL and 1500 mg/dL (5.65 mmol/L and 16.94 mmol/L).
The population for this study was men and women (women of childbearing potential will need to be on contraception or practice abstinence) >18 years of age with a body mass index ≤45 kg/m^2 who were not on lipid-altering therapy or were currently on lipid-altering therapy. Patients currently on statin therapy (with or without ezetimibe) were evaluated by the investigator as to whether this therapy can be safely discontinued at screening, or if it should be continued. If statin therapy (with or without ezetimibe) was to be continued, dose(s) must have been stable […] prior to randomization. […]

[2] = system: subjects with Age-Associated Memory Impairment; assay: CDR computerized cognitive test battery, 6-week pilot study; settings: for Power of Attention, effect of treatment: 4 g daily vs placebo, 6 weeks; for Picture Recognition Sensitivity Index, LS mean difference versus placebo: Day 28 at AM 2 and PM 2; for Quality of Episodic Secondary Memory, LS mean difference versus placebo: overall
[3] = Essential fatty acid parameters in plasma and RBC, 6-week AAMI study; settings: 1, 2 and 4 g treatment groups
Method: Blood samples (10 mL) were collected at Visit 1 (screening) and at Visits 4, 5 and 6. Analysis was performed by MSR Lipid Analysis, Scottish Crop Research Institute, Dundee, UK. The screening sample acted as baseline for the EFA measurements. Lipid was extracted from plasma, serum and RBC suspensions and converted into fatty acid methyl esters which were analyzed by gas chromatography to give fatty acid profiles as micrograms fatty acid per gram of sample (μgFA/g) and normalized area percent. RBC and plasma EFA data were collected at baseline, Day 14, 28 and 42 and summarized by visit for each treatment group. Change from baseline and percent change from baseline were also summarized. ANCOVA comparison of ethyl-EPA dose groups and ethyl-EPA versus placebo was performed.

[4] = system: patients with fasting triglyceride levels ≥200 mg/dl and <500 mg/dl despite statin therapy; assay: ANCHOR study: 12-week placebo-controlled study of >96% E-EPA on statin therapy, metabolic syndrome subgroup; settings: 4 g/day, week 12, listed as >96% E-EPA
Method: A multi-center, placebo-controlled, randomized, double-blind, 12-week study was performed to evaluate the efficacy and safety of >96% E-EPA in patients with fasting triglyceride levels ≥200 mg/dl and <500 mg/dl despite statin therapy (the mean of two qualifying entry values needed to be ≥185 mg/dl and at least one of the values needed to be ≥200 mg/dl). The primary objective of the study was to determine the efficacy of >96% E-EPA 2 g daily and 4 g daily, compared to placebo, in lowering fasting TG levels in patients with high risk for cardiovascular disease and with fasting TG levels ≥200 mg/dL and <500 mg/dL, despite treatment to LDL-C goal on statin therapy.
The population for this study was men and women >18 years of age with a body mass index ≤45 kg/m^2 with fasting TG levels greater than or equal to 200 mg/dl and less than 500 mg/dl and on a stable does of statin therapy (with or without ezetimibe). The statin was atorvostatin, rosuvastatin or simvastatin. The dose of statin must have been stable for ≥4 weeks prior to the LDL-C/TG baseline qualifying measurement for randomization. The statin dose was optimized such that the patients are at their LDL-C goal at the LDL-C/TG baseline qualifying measurements. The same statin at the same dose was continued until the study ended. […]

In the case of CC/C=C\C/C=C\C/C=C\C/C=C\C/C=C\CCCC(=O)OCC [AMR101, ethyl eicosapentaenoate], the “LDL-C, Median % Change From Baseline vs Placebo” value [1] is reported as “without significantly increasing”, the “hsCRP, Median % Change From Baseline vs Placebo” value [1] is reported as “reduced” and the “Self-rated Alertness and Self-rated Contentment, post-hoc analysis” value ([2]; 1 g, Days 14 and 28) is reported as “decreases in ratings”. For the same molecule, the “Power of Attention, post-hoc analysis versus the corresponding placebo” value ([2]; 4 g, Day 42) was “overall benefit”, the “Spatial Working Memory Sensitivity Index, post-hoc analysis over placebo” value ([2]; 4 g, Day 42, Study PP Population) was “overall benefit” and the “Simple Reaction Time, post-hoc analysis” value ([2]; 4 g, PM 2 collapsed across days and several time-points on Days 14 and 42) was “improvements in performance”. For the same molecule, the “Choice Reaction Time, post-hoc analysis versus corresponding placebo” value ([2]; 4 g, all study days) was “overall benefit”, the “Continuity of Attention, effect of treatment” value ([2]; Intent-to-Treat) was “no statistically significant effect of treatment” and the “Self-Rated Calmness, effect of treatment” value ([2]; Intent-to-Treat) was “no statistically significant effect of treatment”. For the same molecule, the “Self-Rated Contentment, LS mean difference to placebo” value ([2]; Intent-to-Treat) was “no statistically significant effects”, the “Speed of Memory and contributing subtasks, effect of treatment” value ([2]; Intent-to-Treat) was “no statistically significant effects of treatment” and the “Power of Attention, effect of treatment” value ([2]; Intent-to-Treat, 1 g, 2 g) was “no statistically significant effect of treatment”. For the same molecule, the “Immediate Word Recall Accuracy, LS mean difference versus placebo” value ([2]; Intent-to-Treat, 1 g, Day 14, p=0.028) was “statistically significant decreases”, the “Word Recognition Sensitivity Index, LS mean difference versus placebo” value ([2]; Intent-to-Treat, 1 g, Day 28, p=0.024) was “statistically significant decreases” and the “Picture Recognition Sensitivity Index, LS mean difference versus placebo” value ([2]; Intent-to-Treat, 1 g) was “statistically significant decrease”. For the same molecule, the “Quality of Episodic Secondary Memory, LS mean difference versus placebo” value (“Quality … LS mean difference versus placebo” for short) ([2]; Intent-to-Treat, 1 g, p=0.040) was “statistically significant decreases”, the “Immediate Word Recall Accuracy, LS mean difference versus placebo” value ([2]; Intent-to-Treat, 2 g, Day 28, p=0.017) was “statistically significant decreases” and the “Self-Rated Alertness, LS mean difference versus placebo” value ([2]; Intent-to-Treat, 2 g, Day 28, p=0.047) was “statistically significant decrease in ratings”. The “Quality … LS mean difference versus placebo” value ([2]; Intent-to-Treat, 2 g, p=0.035) was “statistically significant decreases”, the “Spatial Working Memory Speed, LS mean difference versus placebo” value ([2]; Intent-to-Treat, 4 g, Day 14 at PM 1, p=0.048) was “statistically significant benefit” and the “Word Recognition Sensitivity Index, LS mean difference versus placebo” value ([2]; Intent-to-Treat, 4 g, Day 42, p=0.038) was “statistically significant decreases”. The “Choice Reaction Time subtask” value ([2]; Intent-to-Treat, p=0.011) was “statistically significant treatment by day interaction”, the “Spatial Working Memory Sensitivity Index” value ([2]; Intent-to-Treat, p=0.015) was “statistically significant treatment by day interaction” and the “Quality of Working Memory” value ([2]; Intent-to-Treat, p=0.019) was “statistically significant treatment by day interaction”. The “Continuity of Attention, effect of treatment” value ([2]; Study Per Protocol) was “no statistically significant effect of treatment”, the “Self-Rated Calmness, effect of treatment” value ([2]; Study Per-Protocol) was “no statistically significant effect of treatment” and the “Self-Rated Contentment, LS mean difference to placebo” value ([2]; Study Per-Protocol) was “no statistically significant effects”. For the same molecule, the “Speed of Memory and contributing subtasks, effect of treatment” value ([2]; Study Per-Protocol) was “no statistical significant effects of treatment”, the “Power of Attention, effect of treatment” value ([2]; Study Per-Protocol, 1 g, 2 g) was “no statistically significant effect of treatment” and the “Immediate Word Recall Accuracy, LS mean difference to placebo” value ([2]; Study Per-Protocol, 1 g, Day 14, p=0.024) was “statistically significant decreases”. The “Word Recognition Sensitivity Index, LS mean difference to placebo” value ([2]; Study Per-Protocol, 1 g, Day 28, p=0.027) was “statistically significant decreases”, the “Picture Recognition Sensitivity Index, LS mean difference versus placebo” value ([2]; Study Per-Protocol, 1 g) was “statistically significant decreases” and the “Quality … LS mean difference versus placebo” value ([2]; Study Per-Protocol, 1 g, p=0.043) was “statistically significant decreases”. For the same molecule, the “Immediate Word Recall Accuracy, LS mean difference to placebo” value ([2]; Study Per-Protocol, 2 g, Day 28, p=0.017) was “statistically significant decreases”, the “Self-Rated Alertness, LS mean difference versus placebo” value ([2]; Study Per-Protocol, 2 g, Day 28, p=0.035) was “statistically significant decrease in ratings” and the “Quality … LS mean difference versus placebo” value ([2]; Study Per-Protocol, 2 g, p=0.036) was “statistically significant decreases”. The “Word Recognition Sensitivity Index, LS mean difference to placebo” value ([2]; Study Per-Protocol, 4 g, Day 42, p=0.038) was “statistically significant decreases”, the “Choice Reaction Time subtask” value ([2]; Study Per-Protocol, p=0.013) was “statistically significant treatment by day interaction” and the “Spatial Working Memory Sensitivity Index” value ([2]; Study Per-Protocol, p=0.014) was “statistically significant treatment by day interaction”. For the same molecule, the “Quality of Working Memory” value ([2]; Study Per-Protocol, p=0.021) was “statistically significant treatment by day interaction”, the “AA, DHA and DGLA values, change from baseline to day 42” value [3] was “decreased substantially” and the “hsCRP, Median % Change From Baseline vs Placebo” value [4] was “significantly greater”.
